{"source": "patent US8853125B2", "about": "“Pyrazole compounds for controlling invertebrate pests” (BASF SE, priority 2008, dated 2014)", "assay_type_in_all_cases": "in vivo", "key": {"[1]": {"test_system": "Cotton Aphid (aphis gossypii, Mixed Life Stages)", "test": "Cotton aphid, method b (electrostatic sprayer)", "details": "300 ppm; sprayed; after 5 days"}, "[2]": {"test_system": "Boll Weevil (Anthonomus grandis)", "test": "Boll weevil, eggs on insect diet in microtiter plates", "details": "test solution 2500 mg/L; 20 μl sprayed onto diet; 5 days"}, "[3]": {"test_system": "Cotton Aphid (aphis gossypii, Mixed Life Stages)", "test": "Cotton aphid, method a (cotyledon dip)", "details": "300 ppm; cotyledons dipped; counts after 5 days", "from_the_text": "(§1) The active compounds were formulated in 50:50 (vol:vol) acetone:water and 100 ppm Kinetica™ surfactant.\nCotton plants at the cotyledon stage (one plant per pot) were infested by placing a heavily infested leaf from the main colony on top of each cotyledon. The aphids were allowed to transfer to the host plant overnight, and the leaf used to transfer the aphids was removed. The cotyledons were dipped in the test solution and allowed to dry. After 5 days, mortality counts were made."}, "[4]": {"test_system": "Vetch Aphid (Megoura viciae)", "test": "Vetch aphid, bean leaf disks in microtiterplates", "details": "test solution 2500 mg/L; leaf disks sprayed with 2.5 μl; 6 days", "protocol": "The active compounds were formulated in 1:3 (vol:vol) DMSO:water with different concentrations of formulated compounds.\nBean leaf disks were placed into microtiterplates filled with 0.8% agar-agar and 2.5 ppm OPUS™. The leaf disks were sprayed with 2.5 μl of the test solution and 5 to 8 adult aphids were placed into the microtiterplates which were then closed and kept at 23±1° C. and 50±5% relative humidity under fluorescent light for 6 days. Mortality was assessed on the basis of vital, reproduced aphids. Aphid mortality and fecundity was then visually assessed."}, "[5]": {"test_system": "Green Peach Aphid (Myzus persicae, Mixed Life Stages)", "test": "Green peach aphid, method a (leaf dip, pepper plants)", "details": "300 ppm; leaves dipped; after 5 days", "from_the_text": "as §1\nPepper plants in the 2nd leaf-pair stage (variety ‘California Wonder’) were infested with approximately 40 laboratory-reared aphids by placing infested leaf sections on top of the test plants. The leaf sections were removed after 24 hr. The leaves of the intact plants were dipped into gradient solutions of the test compound and allowed to dry. Test plants were maintained under fluorescent light (24 hour photoperiod) at about 25° C. and 20-40% relative humidity. Aphid mortality on the treated plants, relative to mortality on check plants, was determined after 5 days."}, "[6]": {"test_system": "Cowpea Aphid (aphis craccivora)", "test": "Cowpea aphid, sprayed potted cowpea plants", "details": "300 ppm, population reduction assessed after 24, 72 and 120 hours", "protocol": "The active compounds were formulated in 50:50 (vol:vol) acetone:water. The test solution was prepared at the day of use.\nPotted cowpea plants colonized with 100-150 aphids of various stages were sprayed after the pest population had been recorded. Population reduction was assessed after 24, 72, and 120 hours."}, "[7]": {"test_system": "Green Peach Aphid (Myzus persicae, Mixed Life Stages)", "test": "Green peach aphid, method b (electrostatic sprayer, bell pepper)", "details": "300 ppm; sprayed; after 5 days"}, "Bean Aphid (Aphis fabae) [8]": {"test_system": "Bean Aphid (Aphis fabae)", "test": "Bean aphid, method a (nasturtium plant dip)", "details": "10 ppm; plant dipped; after 3 days"}, "[9]": {"test_system": "Silverleaf Whitefly (bemisia argentifolii, Adult)", "test": "Silverleaf whitefly, cotton cotyledon dip", "details": "300 ppm; cotyledons dipped; 3 days after treatment"}, "Bean Aphid (Aphis fabae) [10]": {"test_system": "Bean Aphid (Aphis fabae)", "test": "Bean aphid, method b (electrostatic sprayer, nasturtium)", "details": "300 ppm; sprayed; 3 days after treatment"}}, "note": "Some results were stated once for a whole list of compounds, not compound by compound.", "data": [{"smiles": "O=C(Nc1cccnc1)c1cnn2c1CCC2", "note": "[Compound 4]", "values": [{"measurement": "mortality in comparison with untreated controls", "setting": "[1]", "value": "at least 75%"}, {"measurement": "mortality (egg and larval)", "setting": "[2]", "value": "at least 50%"}, {"measurement": "mortality in comparison with untreated controls", "setting": "[3]", "value": "at least 75%"}, {"measurement": "mortality", "setting": "[4]", "value": "at least 90%"}, {"measurement": "mortality in comparison with untreated controls", "setting": "[5]", "value": "at least 75%"}, {"measurement": "mortality in comparison with untreated controls", "setting": "[6]", "value": "at least 75%"}, {"measurement": "mortality in comparison with untreated controls", "setting": "[7]", "value": "at least 75%"}]}, {"smiles": "O=C(Nc1cccnc1)c1cnn2ccncc12", "note": "[Compound 7]", "values": [{"measurement": "mortality in comparison with untreated controls", "setting": "[3]", "value": "at least 75%"}, {"measurement": "mortality", "setting": "[4]", "value": "at least 90%"}, {"measurement": "mortality in comparison with untreated controls", "setting": "[5]", "value": "at least 75%"}, {"measurement": "mortality in comparison with untreated controls", "setting": "[6]", "value": "at least 75%"}]}, {"smiles": "O=C(Nc1cccnc1)c1cnn2ncccc12", "note": "[Compound 8]", "values": [{"measurement": "mortality in comparison with untreated controls", "setting": "[3]", "value": "at least 75%"}, {"measurement": "mortality", "setting": "[4]", "value": "at least 90%"}, {"measurement": "mortality in comparison with untreated controls", "setting": "Bean Aphid (Aphis fabae) [8]", "value": "at least 90%"}, {"measurement": "mortality in comparison with untreated controls", "setting": "[5]", "value": "at least 75%"}, {"measurement": "mortality in comparison with untreated controls", "setting": "[6]", "value": "at least 75%"}]}, {"smiles": "O=C(Nc1cccnc1)c1cnn2c1COCC2", "note": "[Compound 9]", "values": [{"measurement": "mortality in comparison with untreated controls", "setting": "[3]", "value": "at least 75%"}, {"measurement": "mortality in comparison with untreated controls", "setting": "Bean Aphid (Aphis fabae) [8]", "value": "at least 90%"}, {"measurement": "mortality in comparison with untreated controls", "setting": "[5]", "value": "at least 75%"}, {"measurement": "mortality in comparison with untreated controls", "setting": "[6]", "value": "at least 75%"}]}, {"smiles": "O=C(Nc1cccnc1)c1cnn2c1CCCN2", "note": "[Compound 10]", "values": [{"measurement": "mortality (egg and larval)", "setting": "[2]", "value": "at least 50%"}, {"measurement": "mortality in comparison with untreated controls", "setting": "[3]", "value": "at least 75%"}, {"measurement": "mortality", "setting": "[4]", "value": "at least 90%"}, {"measurement": "mortality in comparison with untreated controls", "setting": "[6]", "value": "at least 75%"}]}, {"smiles": "CN1CCCc2c(C(=O)Nc3cccnc3)cnn21", "note": "[Compound 11]", "values": [{"measurement": "mortality (egg and larval)", "setting": "[2]", "value": "at least 50%"}, {"measurement": "mortality in comparison with untreated controls", "setting": "[3]", "value": "at least 75%"}, {"measurement": "mortality", "setting": "[4]", "value": "at least 90%"}, {"measurement": "mortality in comparison with untreated controls", "setting": "[5]", "value": "at least 75%"}, {"measurement": "mortality in comparison with untreated controls", "setting": "[6]", "value": "at least 75%"}, {"measurement": "mortality in comparison with untreated controls", "setting": "[9]", "value": "at least 75%"}]}, {"smiles": "COc1cccc(C2CC(C(F)(F)F)n3ncc(C(=O)Nc4cccnc4)c3N2)c1", "note": "(stereo not drawn) [Compound 12]", "values": [{"measurement": "mortality (egg and larval)", "setting": "[2]", "value": "at least 50%"}]}, {"smiles": "O=C(Nc1cccnc1)c1cnn2c1CC1CC12", "note": "(stereo not drawn) [Compound 17]", "values": [{"measurement": "mortality in comparison with untreated controls", "setting": "[1]", "value": "at least 75%"}, {"measurement": "mortality (egg and larval)", "setting": "[2]", "value": "at least 50%"}, {"measurement": "mortality in comparison with untreated controls", "setting": "[3]", "value": "at least 75%"}, {"measurement": "mortality", "setting": "[4]", "value": "at least 90%"}, {"measurement": "mortality in comparison with untreated controls", "setting": "[5]", "value": "at least 75%"}, {"measurement": "mortality in comparison with untreated controls", "setting": "[6]", "value": "at least 75%"}, {"measurement": "mortality in comparison with untreated controls", "setting": "[7]", "value": "at least 75%"}, {"measurement": "mortality in comparison with untreated controls", "setting": "Bean Aphid (Aphis fabae) [10]", "value": "at least 75%"}]}, {"smiles": "O=C(Nc1cccnc1)c1cnn2c1CC1CCCCC12", "note": "(stereo not drawn) [Compound 18]", "values": [{"measurement": "mortality in comparison with untreated controls", "setting": "[1]", "value": "at least 75%"}, {"measurement": "mortality (egg and larval)", "setting": "[2]", "value": "at least 50%"}, {"measurement": "mortality in comparison with untreated controls", "setting": "[3]", "value": "at least 75%"}, {"measurement": "mortality", "setting": "[4]", "value": "at least 90%"}, {"measurement": "mortality in comparison with untreated controls", "setting": "[5]", "value": "at least 75%"}, {"measurement": "mortality in comparison with untreated controls", "setting": "[6]", "value": "at least 75%"}, {"measurement": "mortality in comparison with untreated controls", "setting": "[7]", "value": "at least 75%"}, {"measurement": "mortality in comparison with untreated controls", "setting": "Bean Aphid (Aphis fabae) [10]", "value": "at least 75%"}]}, {"smiles": "Cl.O=C(Nc1cccnc1)c1cnn2ncccc12", "note": "[Compound 25]", "values": [{"measurement": "mortality in comparison with untreated controls", "setting": "[1]", "value": "at least 75%"}, {"measurement": "mortality", "setting": "[4]", "value": "at least 90%"}, {"measurement": "mortality in comparison with untreated controls", "setting": "[5]", "value": "at least 75%"}, {"measurement": "mortality in comparison with untreated controls", "setting": "[6]", "value": "at least 75%"}, {"measurement": "mortality in comparison with untreated controls", "setting": "[7]", "value": "at least 75%"}]}, {"smiles": "O=C(Nc1cccnc1)c1cc2n(n1)CCC2", "note": "[Compound 29]", "values": [{"measurement": "mortality in comparison with untreated controls", "setting": "[1]", "value": "at least 75%"}, {"measurement": "mortality in comparison with untreated controls", "setting": "[3]", "value": "at least 75%"}, {"measurement": "mortality in comparison with untreated controls", "setting": "[5]", "value": "at least 75%"}, {"measurement": "mortality in comparison with untreated controls", "setting": "[6]", "value": "at least 75%"}, {"measurement": "mortality in comparison with untreated controls", "setting": "[7]", "value": "at least 75%"}]}, {"smiles": "O=C(Nc1cccnc1)c1cc2n(n1)CCOC2", "note": "[Compound 30]", "values": [{"measurement": "mortality in comparison with untreated controls", "setting": "[3]", "value": "at least 75%"}, {"measurement": "mortality in comparison with untreated controls", "setting": "[5]", "value": "at least 75%"}, {"measurement": "mortality in comparison with untreated controls", "setting": "[6]", "value": "at least 75%"}]}, {"smiles": "CC1CCn2nc(C(=O)Nc3cccnc3)cc21", "note": "(stereo not drawn) [Compound 31]", "values": [{"measurement": "mortality in comparison with untreated controls", "setting": "[3]", "value": "at least 75%"}, {"measurement": "mortality in comparison with untreated controls", "setting": "[5]", "value": "at least 75%"}, {"measurement": "mortality in comparison with untreated controls", "setting": "[6]", "value": "at least 75%"}]}, {"smiles": "O=C(Nc1cccnc1)c1cc2n(n1)C1CCCCC1C2", "note": "(stereo not drawn) [Compound 33]", "values": [{"measurement": "mortality in comparison with untreated controls", "setting": "[3]", "value": "at least 75%"}, {"measurement": "mortality in comparison with untreated controls", "setting": "[5]", "value": "at least 75%"}, {"measurement": "mortality in comparison with untreated controls", "setting": "[6]", "value": "at least 75%"}]}]}
